# Laboratory results taken from paper PMC7356157 (Microorganisms, 2020).
# Tested on: E. coli versus hRBC
# Experiment: Therapeutic index (MHC divided by MIC)
# Conditions: MHC divided by average MIC against ATCC E. coli strains
substance,measurement,value
RKKKMKKALQYIKLLKE-NH2 [Peptide 35409-1],TI,> 17.5

# No end group written: not given here.
